The source of these data is publication PMC6795895.

The chains behind the UniProt entries cited, without tags or fusion partners. Where a name states a change or a piece, a line headed by the entry shows the natural chain unless it says otherwise.
UniProt Q9WTL8: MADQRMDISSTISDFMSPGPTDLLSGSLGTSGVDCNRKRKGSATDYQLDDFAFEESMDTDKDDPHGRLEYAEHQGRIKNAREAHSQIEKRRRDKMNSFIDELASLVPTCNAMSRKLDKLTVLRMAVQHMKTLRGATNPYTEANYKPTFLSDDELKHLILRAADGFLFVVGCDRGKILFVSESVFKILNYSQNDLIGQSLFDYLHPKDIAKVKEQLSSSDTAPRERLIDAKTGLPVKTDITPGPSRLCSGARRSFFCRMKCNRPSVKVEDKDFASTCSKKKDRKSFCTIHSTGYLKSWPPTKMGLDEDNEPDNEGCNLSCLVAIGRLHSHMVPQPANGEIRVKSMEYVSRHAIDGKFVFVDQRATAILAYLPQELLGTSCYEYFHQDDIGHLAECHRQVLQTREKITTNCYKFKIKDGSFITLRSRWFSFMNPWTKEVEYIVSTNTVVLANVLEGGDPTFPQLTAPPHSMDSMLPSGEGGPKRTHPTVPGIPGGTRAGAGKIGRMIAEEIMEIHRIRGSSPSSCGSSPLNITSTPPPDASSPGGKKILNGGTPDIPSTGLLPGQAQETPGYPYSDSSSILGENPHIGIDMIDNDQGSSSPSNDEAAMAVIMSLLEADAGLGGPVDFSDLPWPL

For at least one entry, the source does not settle the construct or the ends of the probe. At least one result comes from cells or an extract, where the contact may be indirect.

The series deals with Bmal1 (UniProt Q9WTL8). Nature of the series: EMSA. To be noted: EMSA binding buffer (Beyotime kit, composition and pH not stated), 6 μg nuclear protein, 0.5 nmol biotin probe, 12.5 nmol unlabeled competitor; protein in an extract; label: biotin. (In EMSA bound probe runs differently from free probe, usually more slowly.)

Take “TTCGGATGTTCCAGCTGCCTTTATCTCC (double strand) [Hnf4α-Ebox-1]”: the binding result is listed as “binds”.

As for “AGGCTGCTGGACATGTGTGGAGAGGCCA (double strand) [Hnf4α-Ebox-3]”, the binding result is “binds”.
